The values that follow come from paper PMC5435804.

No signal at the amounts used counts as a negative. Where a protein sequence is shown, tags need not be part of it.

The test system of this series is T1, rCosR (CosR-His6).
T1 sequence (looked up): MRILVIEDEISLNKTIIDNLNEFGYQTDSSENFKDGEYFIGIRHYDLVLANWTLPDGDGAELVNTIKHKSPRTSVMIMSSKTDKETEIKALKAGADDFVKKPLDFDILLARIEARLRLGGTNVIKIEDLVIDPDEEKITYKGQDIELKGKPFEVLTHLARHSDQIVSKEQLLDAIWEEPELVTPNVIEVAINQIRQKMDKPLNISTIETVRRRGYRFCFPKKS
Nature of the series: EMSA. As to conditions: sheared salmon sperm DNA competitor, 20 mM Tris-HCl pH 8.0, 150 mM NaCl, 5 mM MgCl2, 10 mM KCl, 10 ug/ml sheared salmon sperm DNA, 10% glycerol, 20 ul, room temperature 30 min, native 6% PAGE in 0.5x TBE, recombinant protein, residues 1-223, protein details: N-terminal His6 (pET-15b, NdeI/BamHI), probe letters rebuilt from the primers and the genome.

Consider “AAAAGAGACATCATAACCTTTCAAAAATTTAAAAAATAATTTTAGTTTATACAATAACCAAACTTAAATAAAATATAAAAATAGAAATAAAGATAAATTTTTTGCACCGAAGGTGCAAAATTGTTAAGATTTTTTAGGGAAGCAGAAACGGTATCCTCTACGACGAACTGTTTCTATGGTAGATATATTTAATGGTTTATCCATTTTTTGACGAATTTGATTGATAGCTACTTCGATAACATTTGGAGTTACTAGCTCAGGTTCTTCCCAGATGGCATCTAAAAGTTGTTCTTTGGATACAATTTGATCCGAATGTCTTGCTAAGTGCGTTAAAACTTCAAAAGGTTTTCCTTTAAGTTCTATATCTTGACCTTTATAAGTAATTTTTTCCTCATCTGGATCAATAACTAAGTCTTCAATTTTAATAACATTGGTTCCGCCAAGTCTTAGTCTTGCTTCAATTCTTGCGAGTAGAATATCAAAA (double strand) [cosR internal region 484 bp]”, for which the binding result (10 uM rCosR) was “no binding”.
With “CGTGCATCCCAGTGTTCTATTTTTTTAGCACCTAAATCATGTAAAACAGCTCTAATAGGAGTGATTTCATCTGCACCAATAACCAAAACTGACATAAATTCTCCTTTGTGATTTTTAAAATATATTTTGATAATTATTATTATAATATAAAAAAACTAAATTTATTTTGAAATTTATTATCAATAAAATGCAATTATTCAGTTAATTTTAATTTTTAATAGATATAATTTACTAATTAATAAAATTTATTATTTAGGAGAAAACAATGAAAAAATTGACTAACGATTTTGGAAACATTATAGCTGATAACCAAAATTCATTAAGCGCAGGCGCAAAA (double strand) [katA promoter 337 bp]”, the binding result (10 uM rCosR, positive control) is recorded as “binds”.
In the case of “TGGTATATTAGATTTCGAAAGAAGAAAAAAACAAAAAATTATTATCAAACTTAAAGCTAAAGCAAATGAATTTTTAAATTATGCAGAGGTAATTACCAAAATTAAAAAATGGTATAAAAAAGAAGAATTTTACACCCTTGAAGAGTCTTTAGACTTTGTAAGCTTAAATTTAAAAAAAGATTTTCCTAATTTAACCAATCTTAACATAAAAATTTTCAAACCCCATATAATAAAAAATGCTACAGTTGGGTTAAATTGAAAAAAAATATTAATTTTTTTTTAAAGATATCTAAACATTTACTTAAGCTATGATATAATTCTTTAAATTTTTCTTAATAAGGATAGAACAAATGAGAATTTTAGTTATAGAAG (double strand) [cosR promoter 374 bp]”, where the note is “1-10 uM rCosR titration”, the binding result is on record as “binds”.
